From PubChem BioAssay AID445 (National Center for Advancing Translational Sciences (NCATS), 2006)
This is one part of the list. These are further read-outs of the screen, such as a control signal, another cell line or another target. No call is given for them. The list favours compounds with an active or inconclusive main result. The note in brackets gives the kind of curve behind each potency; many fits are weak.

test: IkB Signaling; conditions: ABC-DLBCL IkBa-CBG/CBR dual luciferase ratio (green luciferase fused to IkBa over red control in OCI-Ly3 lymphoma cells), 4 h; measured here: control luc red channel unless noted
Outline: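 Curves were fitted separately to fusion (green), unfused (red) and ratio luminescence, then classed by r2, magnitude and activity. Cells: OCI-Ly3, 4 h compound plus doxycycline at 37C; 10 uM MG-132 defined full response.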

| SMILES | AC50 |
| --- | --- |
| CC(C)C1C(C#N)=C(N)Oc2n[nH]c(-c3cccs3)c21 (stereo not given) | 31.6 µM [falling, partial curve] |
| Cc1ccc2c(c1)N(C(=O)N1CCC(C(=O)NC3CCCCCC3)CC1)CCO2 | 0.0794 µM [falling, full curve] |
| CN(C)c1ccc(-c2nc(-c3ccncc3)no2)cc1[N+](=O)[O-] | 10 µM [falling, partial curve] |
| O=C1c2ccccc2C(=O)N1CCCSc1nc2ccccc2o1 | 25.1 µM [falling, single point] |
| CCc1nc2oc3cc(OC)ccc3c(=O)c2c(=O)n1-c1ccccc1 | 0.0316 µM [falling, full curve] |
| CCC1CCCCN1CCCNC(=O)c1cc2c(Cl)nc3ccc(C)cc3c2s1 (stereo not given) | 39.8 µM [rising, single point] |
| Cc1c2cnn(CC(=O)NCCc3ccccc3)c(=O)c2c(C)n1Cc1ccccc1Cl | 25.1 µM [falling, partial curve] |
| CCC1CCCCN1CCCNC(=O)c1ccc2c(c1)N(Cc1cccc(C)c1)C(=O)c1ccccc1S2(=O)=O (stereo not given) | 31.6 µM [falling, single point] |
| Cc1[nH]n2c(=O)c(C#N)c(-c3ccccc3)nc2c1-c1ccccc1 | 0.398 µM [falling, full curve] |
| COc1cc(C(=O)NCC(c2ccc(N(C)C)cc2)N2CCCC2)cc(OC)c1OC (stereo not given) | 25.1 µM [falling, partial curve, poor fit] |
| CCOc1ccc(NC(=O)CSc2nc3nc(C)c(Cc4ccccc4)c(C)n3n2)cc1 | 39.8 µM [falling, partial curve] |
| CCc1ccc(NC(=O)CSc2nc(=O)n(Cc3cccnc3)c3c2CCC3)cc1 | 25.1 µM [falling, single point] |
| CCc1ccccc1NC(=O)CSc1nc2c(oc3ccccc32)c(=O)n1-c1ccccc1 | 15.8 µM [falling, partial curve] |
| CCN(CC)CCNC(=O)CCCCn1c(=S)[nH]c2c([nH]c3ccc(OC)cc32)c1=O | 12.6 µM [falling, partial curve] |
| CCn1c2ccccc2c2nc3cc(S(=O)(=O)N4CCOCC4)ccc3nc21 | 31.6 µM [rising, single point] [measured here: IkB-luc green channel] |
| O=C(Nc1ncccc1O)c1cccc(S(=O)(=O)N2CCc3ccccc32)c1 | 31.6 µM [rising, single point] [measured here: IkB-luc green channel] |
| CSc1ccc(CCNC(=O)c2sc3ncccc3c2-n2cccc2)cc1 | 31.6 µM [falling, single point] |
| O=C(NCC(c1cccnc1)N1CCOCC1)C(=O)Nc1cccc(Cl)c1 (stereo not given) | 25.1 µM [falling, single point] |
| COC(=O)c1ccc(NC(=O)N2CCc3c([nH]c4ccccc34)C2c2ccc(C)cc2)cc1 (stereo not given) | 3.98 µM [falling, partial curve] |
| CN(C)S(=O)(=O)N(CC(=O)NCCSCc1ccc(Cl)cc1Cl)c1ccccc1 | 12.6 µM [falling, partial curve] |

Entries above with a cyano group, in the order listed:

| SMILES | AC50 |
| --- | --- |
| CC(C)C1C(C#N)=C(N)Oc2n[nH]c(-c3cccs3)c21 (stereo not given) | 31.6 µM [falling, partial curve] |
| Cc1[nH]n2c(=O)c(C#N)c(-c3ccccc3)nc2c1-c1ccccc1 | 0.398 µM [falling, full curve] |

Next structures:

| SMILES | AC50 |
| --- | --- |
| Cc1cc(C(=O)Nc2cccc(C(=O)O)c2)oc1C | 1.58 µM [falling, full curve] |
| COc1ccc(NC(=O)CN2C(=O)C(c3ccccc3)=NC23CCC(C)CC3)cc1Cl (stereo not given) | 20 µM [falling, single point] |
| CC(C)c1ccc(NC(=O)c2cc(S(=O)(=O)NCCc3ccccc3)ccc2F)cc1 | 25.1 µM [falling, partial curve] |
| O=C1Cc2cc(S(=O)(=O)Nc3cccc(C(F)(F)F)c3)cc3c2N1CCC3 | 31.6 µM [falling, partial curve] |
| COc1ccc(C(C)C)cc1S(=O)(=O)NCCc1c(C)[nH]c2c(Cl)cccc12 | 20 µM [falling, single point] |
| C[C@H](NC(=O)OC(C)(C)C)c1nnc(SCc2ccc(Cl)cc2Cl)o1 | 20 µM [falling, partial curve, poor fit] |
| CCc1ccccc1NC(=O)Cn1nc(C)c2nn(-c3ccc(Cl)cc3)c(C)c2c1=O | 1.26 µM [falling, full curve, poor fit] |
| Cc1nc(N2CCN(Cc3nc4ccccc4[nH]3)CC2)c2oc3ccccc3c2n1 | 12.6 µM [falling, partial curve] |
| CCc1ccc(S(=O)(=O)c2cn(C)c3ccc(C)cc3c2=O)cc1 | 20 µM [falling, single point] |
| Cc1ccc(-n2nc(C(=O)N(C)c3ccccc3Cl)c3c4ccccc4n(C)c3c2=O)cc1 | 3.16 µM [falling, full curve] |
| COc1ccc(OC)c(NC(=O)CSc2ncccc2C(=O)O)c1 | 31.6 µM [falling, single point] |
| CCOC(=O)c1[nH]c(C)c(CCC(=O)N2CCN(c3ccc(Cl)cc3)CC2)c1C | 31.6 µM [falling, single point] |
| O=C(O)c1ccc(Nc2ncnc3scc(-c4ccccc4)c23)cc1 | 10 µM [falling, partial curve] |
| CCc1ccc2nc(N(Cc3cccnc3)C(=O)Cc3ccccc3)sc2c1 | 31.6 µM [falling, single point] |
| COc1cc(OC)cc(C(=O)Nc2cccc(C(C)=O)c2)c1 | 10 µM [falling, partial curve] |
| CCC(C(=O)NCc1ccccc1Cl)n1c(=O)c2cccn2c2ccccc21 (stereo not given) | 15.8 µM [falling, partial curve] |
| Cc1ccc2c(c1)N(C(=O)c1ccc(F)cc1)C(C)(C)CC2(C)c1ccccc1 (stereo not given) | 10 µM [falling, partial curve] |
| CCc1ccccc1N1C(=O)N(Cc2cc(=O)n3ccccc3n2)c2ccccc2S1(=O)=O | 12.6 µM [falling, single point] |
| O=C(NCc1ccccc1)c1c2c(nc3ccccc13)C(=O)N(C1CCCCC1)C2 | 39.8 µM [falling, single point] |
| CCN(CC)c1ccc2nc3c(=O)n(C)c(=O)n(C)c3nc2c1 | 20 µM [rising, partial curve] |
